The other results are listed elsewhere or left out. These are further read-outs of the screen, such as a control signal, another cell line or another target. No call is given for them. Most of these compounds were active or inconclusive in the main read-out, so they are no random draw. Words in brackets tell the shape of the fitted curve; partial curves, single points and poor fits give uncertain potencies.
Assay: qHTS Assay for Lipid Storage Modulators in Drosophila S3 Cells;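 for cell number change: cells counted by Cell Tracker Red CMTPX staining in the red channel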
Settings: BODIPY lipid droplet fluorescence, 18-24 h; for cell number change: measured here: cell count max response, cells fed with added oleic acid
Outline: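 Laser-scanning cytometry quantifies lipid droplet accumulation (500–530 nm total intensity; droplet/cell object ratio) in oleic acid-fed (400 uM added) Drosophila S3 cells treated with a concentration series. 20 uM Triacsin C defined 100% inhibition.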

[1] = measured here: lipid fluorescence (Fed channel) AC50, cells fed with added oleic acid
[2] = measured here: cell number channel AC50, cells fed with added oleic acid

Structure (SMILES)	cell number change [%]	AC50 [1]	AC50 [2]
O=C(O)CCn1cc(C(=O)O)c(-c2ccccc2)n1	-2.13	0.116 µM [falling, partial curve, poor fit]	
CC(C)(CNC(=O)CCNC(=O)c1ccc(Br)cc1)N1CCOCC1	10.4		
COc1ccc(CCNC(=O)c2nn(C)c3c2CS(=O)(=O)c2ccccc2-3)c(OC)c1	10.7		
Cc1c(Cl)cccc1NC(=S)N(C)CCC#N	43.6		
COc1ccc(C(=O)N2CC3(CC(c4cccc(NC(=O)COc5ccc(Cl)cc5)c4)=NO3)C[C@@H]2C(N)=O)cc1 (stereo partly specified)	-32.5	16.4 µM [falling, partial curve]	18.4 µM [falling, single point]
Cc1ccc(CNC(=O)CCC(=O)Nc2nnc(C(C)C)s2)cc1	2.45		
CCN(CC)CC(C)(C)COC(=O)c1oc2ccccc2c1C	-7.9		
CS(=O)(=O)Nc1cccc(C2=NN(C(=O)CCC(=O)O)C(c3cccs3)C2)c1 (stereo unspecified)	26.4	8.2 µM [rising, partial curve, poor fit]	
CC1(C)CC(=O)C(C=Nc2ccc(C(=O)c3ccccc3)cc2N=CC2=C(O)CC(C)(C)CC2=O)=C(O)C1	87.3		
Cc1cc(=O)oc(C)c1C(=O)NCC(C)C			0.00461 µM [rising, full curve, poor fit]
COc1ccc(CNC(=O)COc2cc3c(c4oc(=O)cc(C)c24)CCC(C)(C)O3)cc1	-23.6	0.731 µM [falling, partial curve, poor fit]	
CC1Cc2cc(/C(O)=C3/C(=O)C(=O)N(CCCn4ccnc4)C3c3ccc(Br)cc3)ccc2O1 (stereo unspecified)	-3.44		
COC(=O)c1ccccc1NC(=O)Nc1c(C)n(C)n(-c2ccccc2)c1=O	5.41	5.17 µM [rising, single point]	
COc1ccc(CCN(C)C(=O)c2cnc(C)cn2)cc1OC	-11.4	0.411 µM [rising, full curve]	
O=C(Nc1cc(Cl)ccc1O)c1cc(-c2ccco2)on1	10	1.16 µM [rising, single point]	
Cc1ccc(NC(=O)C2CCN(c3cnccn3)CC2)cc1	23.2	29.1 µM [rising, single point]	
CCCCN(C(=O)/C=C/c1ccco1)c1c(N)n(CCC)c(=O)[nH]c1=O	-64		29.1 µM [falling, single point]
CCCCn1cnc2cc(C)c(C)cc21	-23.6		
COc1ccc(C2/C(=C(/O)c3ccc(Br)cc3)C(=O)C(=O)N2C)cc1OC (stereo unspecified)	-4.99	29.1 µM [rising, single point]	
N#Cc1ccc(S(=O)(=O)N2CCN(C(=O)C3CC(=O)N(c4ccc5c(c4)OCCO5)C3)CC2)cc1 (stereo unspecified)	-5.65	4.61 µM [falling, full curve, poor fit]	
O=C(O)c1ccc(CSc2nnc(-c3ccco3)o2)cc1		0.326 µM [falling, partial curve]	

Only AC50 [1] and cell number change [%], for some of the entries so far:

| Structure (SMILES) | AC50 [1] | cell number change [%] |
| --- | --- | --- |
| CC(C)(CNC(=O)CCNC(=O)c1ccc(Br)cc1)N1CCOCC1 |  | 10.4 |
| COc1ccc(CCNC(=O)c2nn(C)c3c2CS(=O)(=O)c2ccccc2-3)c(OC)c1 |  | 10.7 |
| Cc1c(Cl)cccc1NC(=S)N(C)CCC#N |  | 43.6 |
| COc1ccc(C(=O)N2CC3(CC(c4cccc(NC(=O)COc5ccc(Cl)cc5)c4)=NO3)C[C@@H]2C(N)=O)cc1 (stereo partly specified) | 16.4 µM [falling, partial curve] | -32.5 |
| Cc1ccc(CNC(=O)CCC(=O)Nc2nnc(C(C)C)s2)cc1 |  | 2.45 |

Further results follow:

Structure (SMILES)	cell number change [%]	AC50 [1]	AC50 [2]
Cc1ccc(NS(=O)(=O)c2cccc(C(=O)N/N=C/c3ccc4c(c3)OCCO4)c2)c(C)c1		0.13 µM [falling, full curve, poor fit]	6.51 µM [falling, single point]
CCCOc1ccc(C(CC(=O)O)NC(=O)c2sc3ccccc3c2Cl)cc1 (stereo unspecified)	-22.3	0.146 µM [falling, full curve, poor fit]	
COC(=O)Nc1ccc(OC)c(OC)c1	-4.34	0.231 µM [falling, full curve, poor fit]	
CCOC(=O)CC1=C(C(=O)OCC)C(c2ccc(C)o2)C(C#N)=C(N)O1 (stereo unspecified)	101	6.51 µM [rising, single point]	23.1 µM [rising, single point]
CN(Cc1ccccc1)C(=O)C1CCCN1S(=O)(=O)c1ccc(Cl)cc1 (stereo unspecified)	-22.2	10.3 µM [falling, partial curve]	
CC(=O)Nc1ccc(S(=O)(=O)NCCC(=O)N2CCc3ccccc32)cc1		11.6 µM [rising, single point]	
CO[C@H]1C=CO[C@@]2(C)Oc3c(C)c(O)c4c(O)c(c5c(nc6cc(C)ccn65)c4c3C2=O)NC(=O)C(C)=CC=C[C@H](C)[C@H](O)[C@@H](C)[C@@H](O)[C@@H](C)[C@H](OC(C)=O)[C@@H]1C	-4.37	1.84 µM [falling, partial curve, poor fit]	1.84 µM [falling, partial curve, poor fit]
COc1ccccc1CNC(=O)COn1nnc2ccc(S(=O)(=O)N3CCOCC3)cc21	47.5		10.3 µM [rising, partial curve]
CCN(CC(=O)NCc1cccs1)c1nnnn1-c1ccccc1		25.9 µM [falling, partial curve, poor fit]	
CCC(CC)COC(=O)C1=C(C)NC(=O)NC1c1ccc(N(C)C)cc1 (stereo unspecified)	-43.2		25.9 µM [falling, single point]
CN(Cc1nccs1)C(=O)C1CCC(=O)N(CCCc2ccccc2)C1 (stereo unspecified)	14.8	6.51 µM [falling, single point]	
COc1ccc(OCCC(=O)Nc2nccs2)cc1	-15		0.58 µM [rising, partial curve, poor fit]
Clc1ccc(-c2noc(CSc3nnc(Cc4cccs4)n3-c3ccccc3)n2)cc1	-12.5	0.0366 µM [falling, full curve, poor fit]	
Cc1nnc(SCC(=O)NCc2cccs2)[nH]c1=O	8.88		
O=C(N/C(=C\c1cccnc1)c1nc2ccccc2[nH]1)c1cccc(Br)c1	12.2	2.06 µM [rising, partial curve]	
COc1ccc(NC(=O)C(C)Sc2ccccc2)cc1 (stereo unspecified)	1.3		0.058 µM [falling, full curve, poor fit]
COc1cc(C(=O)N(C)CC2CCN(CCc3cccc(C(F)(F)F)c3)CC2)ccc1C	-8.52	29.1 µM [rising, single point]	
Oc1ccc(C2Nc3cccc4cccc(c34)N2)c(O)c1	-21.8	29.1 µM [falling, single point]	
O=C(COc1ccc(S(=O)(=O)N2CCCC2)cc1Cl)NCc1ccccn1	-16.1	20.6 µM [falling, single point]	
O=C(NCCC1=CCCCC1)C1CCCN(S(=O)(=O)c2ccccc2)C1 (stereo unspecified)		0.58 µM [falling, single point]	0.58 µM [falling, single point]
COc1ccc(C(=O)Nc2ccc(NC(=O)CSc3nnc(-c4ccncc4)n3C)cc2)cc1	17.5		

Structure (SMILES)	cell number change [%]	AC50 [1]	AC50 [2]
O=C(c1cccc([N+](=O)[O-])c1)N1CCN(c2ccccn2)CC1	21.5	23.1 µM [rising, single point]	
Cc1ccc(C(=O)N/N=C/c2cc(Br)ccc2O)cn1	-8.39		
CC1(C)CC(=O)C2=C(C1)Oc1nc3ccccc3cc1C2C(C#N)C#N (stereo unspecified)	-21.9	0.731 µM [falling, full curve, poor fit]	
CCOc1ccccc1N(CC(=O)NC(C)(C)C)C(=O)Cn1nnc(-c2ccc(C)o2)n1	17.6		
COc1ccccc1OCCC(=O)OCC(=O)Nc1ccc(Br)cc1F	9.65	0.461 µM [falling, single point]	
O=[N+]([O-])c1ccc(C(=S)N2CCN(c3ccc(F)cc3)CC2)cc1	-32.2	23.1 µM [falling, single point]	23.1 µM [falling, single point]
O=C(Nc1ccc(Cl)cc1F)c1ccccc1Br	7.62	1.84 µM [rising, partial curve, poor fit]	
COc1ccc(S(=O)(=O)NCc2ccco2)cc1-c1nnc2c3ccccc3c(C)nn12	-5.14		
Cc1cc(NC(=O)c2ccco2)no1	0.804	3.66 µM [falling, partial curve, poor fit]	
COc1ccc(C(=O)NCCCSC)cc1OC1CCN(C(C)C)CC1	-9.71		
O=C(OC1CCOC1=O)c1ccccc1C(=O)c1ccc(Cl)c([N+](=O)[O-])c1 (stereo unspecified)	-11.5	0.461 µM [falling, full curve, poor fit]	
O=C(OCC(=O)N1CCc2ccccc2C1)c1ccc(N2CCOCC2)c([N+](=O)[O-])c1	-13.8	16.4 µM [falling, partial curve, poor fit]	
CCOC(=O)Nc1cc(OC)c(OC)cc1Cc1nccc2cc(OC)c(OC)cc12	-27.2	0.731 µM [rising, partial curve]	
O=C(NC1CCCCC1)C(c1ccc(F)cc1)N(C(=O)c1csnn1)C1CC1 (stereo unspecified)	21		
O=C(/C=C/c1cn(-c2ccccc2)nc1-c1ccc2c(c1)OCCO2)NCCCN1CCOCC1	3.97	0.82 µM [rising, partial curve, poor fit]	1.84 µM [rising, partial curve]
COCCNC(=O)CN(C(=O)CCC(=O)Nc1cc(C)on1)c1ccccc1C	-0.982		
CCNC(=O)CC1C(=O)N(c2ccccc2)C(=O)N1CCc1ccc(OC)c(OC)c1 (stereo unspecified)		2.91 µM [falling, partial curve]	
Cc1ccccc1-n1c(Cn2c(=O)sc3ccccc32)nnc1SCC(=O)Nc1nccs1	-0.41	0.058 µM [rising, full curve, poor fit]	
CCCc1nc(SCC(=O)N2CCc3ccccc32)c2c(=O)n(C)c(=O)n(C)c2n1		0.58 µM [rising, full curve]	0.366 µM [rising, full curve]
